Laboratory results reported in BigSolDB 2.1.

Structure (SMILES): Nc1ccc(S(N)(=O)=O)cc1
- solubility (mole fraction) (in 1,4-dioxane, 293.15 K): 0.0789
- solubility (mole fraction) (in 1,4-dioxane, 303.15 K): 0.101
- solubility (mole fraction) (in 1,4-dioxane, 308.15 K): 0.105
- solubility (mole fraction) (in 1,4-dioxane, 313.15 K): 0.115
- solubility (mole fraction) (in 1,4-dioxane, 323.15 K): 0.143
- solubility (mole fraction) (in DMF, 293.15 K): 0.0187
- solubility (mole fraction) (in DMF, 303.15 K): 0.0253
- solubility (mole fraction) (in DMF, 308.15 K): 0.0322
- solubility (mole fraction) (in DMF, 313.15 K): 0.0427
- solubility (mole fraction) (in DMF, 323.15 K): 0.0617
- solubility (mole fraction) (in DMSO, 293.15 K): 0.0127
- solubility (mole fraction) (in DMSO, 303.15 K): 0.0172
- solubility (mole fraction) (in DMSO, 308.15 K): 0.0207
- solubility (mole fraction) (in DMSO, 313.15 K): 0.0246
- solubility (mole fraction) (in DMSO, 323.15 K): 0.033
- solubility (mole fraction) (in acetonitrile, 293.15 K): 0.00367
- solubility (mole fraction) (in acetonitrile, 303.15 K): 0.00512
- solubility (mole fraction) (in acetonitrile, 308.15 K): 0.00757
- solubility (mole fraction) (in acetonitrile, 313.15 K): 0.0113
- solubility (mole fraction) (in acetonitrile, 323.15 K): 0.0169
- solubility (mole fraction) (in ethylene glycol, 293.15 K): 0.000661
- solubility (mole fraction) (in ethylene glycol, 303.15 K): 0.00077
- solubility (mole fraction) (in ethylene glycol, 308.15 K): 0.000843
- solubility (mole fraction) (in ethylene glycol, 313.15 K): 0.000951
- solubility (mole fraction) (in ethylene glycol, 323.15 K): 0.00116
- solubility (mole fraction) (in n-butyl acetate, 293.15 K): 0.0011
- solubility (mole fraction) (in n-butyl acetate, 303.15 K): 0.00119
- solubility (mole fraction) (in n-butyl acetate, 308.15 K): 0.00125
- solubility (mole fraction) (in n-butyl acetate, 313.15 K): 0.00138
- solubility (mole fraction) (in n-butyl acetate, 323.15 K): 0.00153
- solubility (mole fraction) (in n-hexane, 293.15 K): 0.000132
- solubility (mole fraction) (in n-hexane, 303.15 K): 0.000144
- solubility (mole fraction) (in n-hexane, 308.15 K): 0.000151
- solubility (mole fraction) (in n-hexane, 313.15 K): 0.000155
- solubility (mole fraction) (in n-hexane, 323.15 K): 0.000164
- solubility (mole fraction) (in n-pentanol, 293.15 K): 0.000634
- solubility (mole fraction) (in n-pentanol, 303.15 K): 0.000795
- solubility (mole fraction) (in n-pentanol, 308.15 K): 0.000955
- solubility (mole fraction) (in n-pentanol, 313.15 K): 0.00125
- solubility (mole fraction) (in n-pentanol, 323.15 K): 0.00187
